Data published in paper PMC12823551.
These are yes or no findings as the source states them, for the method shown. Binding seen in cells or lysates may run through a third protein. Some results given as binding are weak or reduced against the parent protein; the word gives no strength.

Molecular target: E2F4 (human (endogenous in hPSC-derived neuroectoderm cells)), Q16254
Experiment: co-IP; neuroectoderm cells; nuclear and chromatin (Benzonase) extracts in Nuclear Lysis Buffer with 0.3% Triton X-100; 5 ug cross-linked antibodies, 12 h at 4 C; five washes; western blot; alternatively the nuclear complex co-IP kit (Active Motif)
Conditions: remark: other sources report otherwise

B1: RBL2/p130, Q08999 1-1139 (protein)
chain: MPSGGDQSPPPPPPPPAAAASDEEEEDDGEAEDAAPPAESPTPQIQQRFDELCSRLNMDEAARAEAWDSYRSMSESYTLEGNDLHWLACALYVACRKSVPTVSKGTVEGNYVSLTRILKCSEQSLIEFFNKMKKWEDMANLPPHFRERTERLERNFTVSAVIFKKYEPIFQDIFKYPQEEQPRQQRGRKQRRQPCTVSEIFHFCWVLFIYAKGNFPMISDDLVNSYHLLLCALDLVYGNALQCSNRKELVNPNFKGLSEDFHAKDSKPSSDPPCIIEKLCSLHDGLVLEAKGIKEHFWKPYIRKLYEKKLLKGKEENLTGFLEPGNFGESFKAINKAYEEYVLSVGNLDERIFLGEDAEEEIGTLSRCLNAGSGTETAERVQMKNILQQHFDKSKALRISTPLTGVRYIKENSPCVTPVSTATHSLSRLHTMLTGLRNAPSEKLEQILRTCSRDPTQAIANRLKEMFEIYSQHFQPDEDFSNCAKEIASKHFRFAEMLYYKVLESVIEQEQKRLGDMDLSGILEQDAFHRSLLACCLEVVTFSYKPPGNFPFITEIFDVPLYHFYKVIEVFIRAEDGLCREVVKHLNQIEEQILDHLAWKPESPLWEKIRDNENRVPTCEEVMPPQNLERADEICIAGSPLTPRRVTEVRADTGGLGRSITSPTTLYDRYSSPPASTTRRRLFVENDSPSDGGTPGRMPPQPLVNAVPVQNVSGETVSVTPVPGQTLVTMATATVTANNGQTVTIPVQGIANENGGITFFPVQVNVGGQAQAVTGSIQPLSAQALAGSLSSQQVTGTTLQVPGQVAIQQISPGGQQQKQGQSVTSSSNRPRKTSSLSLFFRKVYHLAAVRLRDLCAKLDISDELRKKIWTCFEFSIIQCPELMMDRHLDQLLMCAIYVMAKVTKEDKSFQNIMRCYRTQPQARSQVYRSVLIKGKRKRRNSGSSDSRSHQNSPTELNKDRTSRDSSPVMRSSSTLPVPQPSSAPPTPTRLTGANSDMEEEERGDLIQFYNNIYIKQIKTFAMKYSQANMDAPPLSPYPFVRTGSPRRIQLSQNHPVYISPHKNETMLSPREKIFYYFSNSPSKRLREINSMIRTGETPTKKRGILLEDGSESPAKRICPENHSALLRRLQDVANDRGSH
binding: binds
